The values that follow are results of earlier work, collected in patent US10272082B2, “Combination ALS therapy” (Cytokinetics, Inc., priority 2011, dated 2019).

The subject of this series is human hepatic microsomes. As to conditions: in vitro; high concentrations required; cited from earlier work.

Turning to `CN1C(=O)CN=C(c2ccccc2)c2cc(Cl)ccc21` [diazepam], the “inhibition of the metabolism of riluzole by human hepatic microsomes” value was “inhibition has been observed”.
